Some of the results follow. Residues, ends and D or L forms follow the SMILES beside them. *: point of attachment. Cbz = O=C(OCc1ccccc1)*
Experiments:
Experiment in all cases: log2 fold change, soluble protein after heating vs DMSO (PISA); higher = thermal stabilisation; K562 cells, 10 uM, 30 min; active = over 0.2 and 3.5 SD of the protein, either way, in both replicates (recomputed)
erlotinib = compound: C#Cc1cccc(Nc2ncnc3cc(OCCOC)c(OCCOC)cc23)c1 [erlotinib]
Method in brief: (§1)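 K562 cells (2×10^6 cells/mL) were treated with 10 μM compound for 30 min, and aliquots were heated for 3 min over 48°C-58°C. Pooled aliquots were extracted in PBS with 0.5% NP-40 at 4°C, and the supernatant after 21,000xg for 90 min was measured by TMTpro 16plex LC-MS/MS with channel sums equalised. Reported thermal stability, relative to control samples and from duplicates, is a log2 fold change.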

Protein sequences, listed by entry. Tags and fused reporters are not part of them. Lines headed by an entry give the natural chain unless they say otherwise; changes in a name come on top.
UniProt Q8TBF4: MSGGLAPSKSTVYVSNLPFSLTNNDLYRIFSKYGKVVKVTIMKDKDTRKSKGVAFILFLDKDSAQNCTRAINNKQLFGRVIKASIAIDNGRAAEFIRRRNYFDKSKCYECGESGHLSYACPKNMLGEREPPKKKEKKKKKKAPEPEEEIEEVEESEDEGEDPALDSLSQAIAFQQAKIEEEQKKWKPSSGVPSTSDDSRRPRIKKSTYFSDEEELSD
UniProt Q9UGR2: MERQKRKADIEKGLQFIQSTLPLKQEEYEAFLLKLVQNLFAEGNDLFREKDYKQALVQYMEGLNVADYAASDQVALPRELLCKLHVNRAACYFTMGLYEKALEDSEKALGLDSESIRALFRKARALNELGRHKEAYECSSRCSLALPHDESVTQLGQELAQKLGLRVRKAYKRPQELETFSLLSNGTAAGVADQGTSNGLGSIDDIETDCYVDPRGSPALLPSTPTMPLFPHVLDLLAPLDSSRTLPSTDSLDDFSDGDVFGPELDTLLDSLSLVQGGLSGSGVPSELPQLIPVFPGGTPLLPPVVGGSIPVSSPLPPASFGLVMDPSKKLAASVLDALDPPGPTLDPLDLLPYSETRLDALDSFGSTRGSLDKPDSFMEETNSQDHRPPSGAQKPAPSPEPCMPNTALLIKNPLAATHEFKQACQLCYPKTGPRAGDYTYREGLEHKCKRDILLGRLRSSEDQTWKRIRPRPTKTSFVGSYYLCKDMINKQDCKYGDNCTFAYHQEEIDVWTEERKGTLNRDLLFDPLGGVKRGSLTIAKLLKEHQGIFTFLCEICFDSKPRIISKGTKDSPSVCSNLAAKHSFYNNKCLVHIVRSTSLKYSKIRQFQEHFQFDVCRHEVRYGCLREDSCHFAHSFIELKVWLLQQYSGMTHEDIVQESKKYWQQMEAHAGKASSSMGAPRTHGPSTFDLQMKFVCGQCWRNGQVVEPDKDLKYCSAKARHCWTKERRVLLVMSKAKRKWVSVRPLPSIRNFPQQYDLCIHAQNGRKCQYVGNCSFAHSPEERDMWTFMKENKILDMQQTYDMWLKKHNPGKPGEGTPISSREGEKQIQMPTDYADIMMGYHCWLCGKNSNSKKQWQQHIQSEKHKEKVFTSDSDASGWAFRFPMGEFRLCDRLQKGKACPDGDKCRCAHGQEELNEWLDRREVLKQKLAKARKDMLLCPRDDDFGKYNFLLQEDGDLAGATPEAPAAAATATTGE
UniProt Q96GR4: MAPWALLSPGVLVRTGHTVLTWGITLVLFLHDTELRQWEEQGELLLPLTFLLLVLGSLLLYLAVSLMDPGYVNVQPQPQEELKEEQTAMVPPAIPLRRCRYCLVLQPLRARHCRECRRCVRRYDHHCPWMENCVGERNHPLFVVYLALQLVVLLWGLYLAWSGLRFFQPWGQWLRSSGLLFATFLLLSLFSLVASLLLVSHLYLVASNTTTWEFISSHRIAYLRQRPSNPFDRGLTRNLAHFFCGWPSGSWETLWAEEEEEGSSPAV
UniProt Q969W1: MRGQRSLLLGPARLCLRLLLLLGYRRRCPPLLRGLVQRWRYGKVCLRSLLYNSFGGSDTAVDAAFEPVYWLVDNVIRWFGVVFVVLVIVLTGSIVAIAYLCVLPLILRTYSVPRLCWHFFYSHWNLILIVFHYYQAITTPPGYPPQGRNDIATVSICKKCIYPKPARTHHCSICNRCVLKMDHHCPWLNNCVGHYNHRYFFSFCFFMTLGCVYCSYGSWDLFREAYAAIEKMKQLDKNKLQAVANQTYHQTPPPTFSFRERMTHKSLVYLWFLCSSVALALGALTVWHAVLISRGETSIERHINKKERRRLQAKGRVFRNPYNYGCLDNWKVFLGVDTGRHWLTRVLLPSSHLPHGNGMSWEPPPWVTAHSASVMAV
UniProt Q9ULC8: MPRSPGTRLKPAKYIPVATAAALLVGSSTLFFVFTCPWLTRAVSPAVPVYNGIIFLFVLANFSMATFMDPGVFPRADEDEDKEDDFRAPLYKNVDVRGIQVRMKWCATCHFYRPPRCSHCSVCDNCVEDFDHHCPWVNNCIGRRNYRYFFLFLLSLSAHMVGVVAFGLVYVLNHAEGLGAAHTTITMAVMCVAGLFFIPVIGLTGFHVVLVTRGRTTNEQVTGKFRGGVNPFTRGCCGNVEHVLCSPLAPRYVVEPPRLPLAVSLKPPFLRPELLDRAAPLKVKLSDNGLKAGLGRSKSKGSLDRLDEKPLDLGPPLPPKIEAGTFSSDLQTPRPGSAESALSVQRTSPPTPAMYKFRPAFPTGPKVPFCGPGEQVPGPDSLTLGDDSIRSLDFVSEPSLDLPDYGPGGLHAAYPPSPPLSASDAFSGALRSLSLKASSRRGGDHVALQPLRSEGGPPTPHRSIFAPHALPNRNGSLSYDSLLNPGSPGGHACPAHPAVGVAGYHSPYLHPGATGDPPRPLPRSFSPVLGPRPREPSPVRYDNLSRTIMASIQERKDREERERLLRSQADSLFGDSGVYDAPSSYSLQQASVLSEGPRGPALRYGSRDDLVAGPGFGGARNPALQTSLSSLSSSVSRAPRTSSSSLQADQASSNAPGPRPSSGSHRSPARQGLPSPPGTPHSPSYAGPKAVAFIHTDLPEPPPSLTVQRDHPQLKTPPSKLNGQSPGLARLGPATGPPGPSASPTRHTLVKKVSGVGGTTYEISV
UniProt C9J5V9: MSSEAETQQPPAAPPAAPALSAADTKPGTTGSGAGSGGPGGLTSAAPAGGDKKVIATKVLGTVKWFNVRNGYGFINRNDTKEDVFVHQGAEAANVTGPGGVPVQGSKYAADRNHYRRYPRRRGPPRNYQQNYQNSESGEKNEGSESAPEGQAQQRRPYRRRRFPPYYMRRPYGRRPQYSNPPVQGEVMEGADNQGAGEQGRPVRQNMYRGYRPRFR
UniProt P58557: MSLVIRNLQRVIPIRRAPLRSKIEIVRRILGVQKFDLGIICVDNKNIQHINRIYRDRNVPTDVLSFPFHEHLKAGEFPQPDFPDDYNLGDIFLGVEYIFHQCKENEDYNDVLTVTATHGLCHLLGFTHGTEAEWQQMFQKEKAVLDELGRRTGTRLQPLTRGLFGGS
UniProt Q5T750: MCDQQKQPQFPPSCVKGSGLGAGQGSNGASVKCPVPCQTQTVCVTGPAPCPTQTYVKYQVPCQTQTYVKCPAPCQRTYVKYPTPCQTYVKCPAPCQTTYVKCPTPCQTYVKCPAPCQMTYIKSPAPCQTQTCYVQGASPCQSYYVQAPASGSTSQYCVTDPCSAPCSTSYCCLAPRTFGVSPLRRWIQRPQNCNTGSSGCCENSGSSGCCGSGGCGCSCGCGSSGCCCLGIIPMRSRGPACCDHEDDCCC
UniProt Q9H1B5: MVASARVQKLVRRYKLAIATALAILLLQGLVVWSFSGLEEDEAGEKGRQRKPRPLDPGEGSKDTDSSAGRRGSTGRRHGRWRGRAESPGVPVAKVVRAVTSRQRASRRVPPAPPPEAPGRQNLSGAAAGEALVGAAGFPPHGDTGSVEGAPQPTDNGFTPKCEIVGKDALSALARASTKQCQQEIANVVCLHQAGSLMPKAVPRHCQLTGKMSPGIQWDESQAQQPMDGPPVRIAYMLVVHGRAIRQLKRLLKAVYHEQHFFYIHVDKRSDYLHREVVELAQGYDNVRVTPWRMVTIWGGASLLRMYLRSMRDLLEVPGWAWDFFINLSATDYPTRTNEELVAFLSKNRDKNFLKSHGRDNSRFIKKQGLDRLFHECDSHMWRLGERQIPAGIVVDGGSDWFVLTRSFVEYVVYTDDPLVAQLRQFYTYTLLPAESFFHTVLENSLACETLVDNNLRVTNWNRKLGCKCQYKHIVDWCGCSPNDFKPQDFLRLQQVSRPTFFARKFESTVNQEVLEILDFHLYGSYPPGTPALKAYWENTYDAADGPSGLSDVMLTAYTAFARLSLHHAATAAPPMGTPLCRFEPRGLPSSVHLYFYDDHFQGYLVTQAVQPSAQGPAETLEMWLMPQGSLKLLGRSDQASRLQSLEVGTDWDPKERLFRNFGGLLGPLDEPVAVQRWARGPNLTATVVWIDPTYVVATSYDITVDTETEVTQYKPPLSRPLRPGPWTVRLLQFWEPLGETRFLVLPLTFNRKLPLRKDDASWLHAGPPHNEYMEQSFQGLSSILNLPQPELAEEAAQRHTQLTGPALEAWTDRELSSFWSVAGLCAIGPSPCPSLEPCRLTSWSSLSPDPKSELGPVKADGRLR
UniProt Q9UIJ5: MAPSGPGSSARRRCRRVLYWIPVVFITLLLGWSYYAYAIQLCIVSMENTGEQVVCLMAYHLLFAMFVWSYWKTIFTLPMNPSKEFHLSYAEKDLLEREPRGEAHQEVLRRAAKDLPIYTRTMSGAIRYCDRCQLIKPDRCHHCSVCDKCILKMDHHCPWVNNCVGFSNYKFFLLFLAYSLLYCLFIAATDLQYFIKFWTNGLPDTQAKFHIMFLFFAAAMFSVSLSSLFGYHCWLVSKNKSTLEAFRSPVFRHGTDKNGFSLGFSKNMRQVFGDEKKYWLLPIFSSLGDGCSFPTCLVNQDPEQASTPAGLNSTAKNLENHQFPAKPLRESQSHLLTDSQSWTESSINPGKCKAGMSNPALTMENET
UniProt Q96DA0: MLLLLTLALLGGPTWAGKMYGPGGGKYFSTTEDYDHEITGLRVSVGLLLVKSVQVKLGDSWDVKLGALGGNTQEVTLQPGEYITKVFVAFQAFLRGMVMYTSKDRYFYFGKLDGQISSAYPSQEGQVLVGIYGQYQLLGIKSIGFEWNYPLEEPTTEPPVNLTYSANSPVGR
UniProt P23025: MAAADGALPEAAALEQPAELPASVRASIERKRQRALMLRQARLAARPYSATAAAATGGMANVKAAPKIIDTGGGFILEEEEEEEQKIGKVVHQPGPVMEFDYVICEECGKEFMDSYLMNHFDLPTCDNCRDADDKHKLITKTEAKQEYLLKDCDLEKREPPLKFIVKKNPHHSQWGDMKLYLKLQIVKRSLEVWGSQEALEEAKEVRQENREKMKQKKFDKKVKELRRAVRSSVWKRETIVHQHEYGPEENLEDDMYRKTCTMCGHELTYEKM
UniProt O43829: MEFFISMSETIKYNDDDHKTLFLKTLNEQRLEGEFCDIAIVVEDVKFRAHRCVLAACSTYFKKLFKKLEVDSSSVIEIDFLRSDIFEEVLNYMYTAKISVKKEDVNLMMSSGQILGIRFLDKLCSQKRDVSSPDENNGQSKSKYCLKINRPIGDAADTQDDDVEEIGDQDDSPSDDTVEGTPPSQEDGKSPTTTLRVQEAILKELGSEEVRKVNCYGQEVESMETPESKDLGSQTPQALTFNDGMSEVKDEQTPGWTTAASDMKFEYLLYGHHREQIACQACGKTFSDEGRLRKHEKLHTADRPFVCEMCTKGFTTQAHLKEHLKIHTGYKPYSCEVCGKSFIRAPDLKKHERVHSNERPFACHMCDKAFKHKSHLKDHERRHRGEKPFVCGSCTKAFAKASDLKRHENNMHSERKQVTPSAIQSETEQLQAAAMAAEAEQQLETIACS
UniProt Q8NCN2: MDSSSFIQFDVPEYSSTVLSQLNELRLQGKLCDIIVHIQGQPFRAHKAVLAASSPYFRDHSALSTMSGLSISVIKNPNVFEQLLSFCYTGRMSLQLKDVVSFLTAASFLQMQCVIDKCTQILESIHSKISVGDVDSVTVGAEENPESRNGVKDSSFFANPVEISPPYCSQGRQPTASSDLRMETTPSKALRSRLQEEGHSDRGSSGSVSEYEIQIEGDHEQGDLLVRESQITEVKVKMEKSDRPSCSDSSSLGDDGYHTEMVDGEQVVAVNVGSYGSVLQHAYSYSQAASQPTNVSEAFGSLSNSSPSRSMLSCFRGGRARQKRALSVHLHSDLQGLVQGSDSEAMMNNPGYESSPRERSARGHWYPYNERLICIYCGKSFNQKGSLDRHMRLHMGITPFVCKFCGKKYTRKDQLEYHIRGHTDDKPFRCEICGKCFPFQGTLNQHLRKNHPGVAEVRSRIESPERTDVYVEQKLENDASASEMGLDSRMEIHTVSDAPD
UniProt O96006: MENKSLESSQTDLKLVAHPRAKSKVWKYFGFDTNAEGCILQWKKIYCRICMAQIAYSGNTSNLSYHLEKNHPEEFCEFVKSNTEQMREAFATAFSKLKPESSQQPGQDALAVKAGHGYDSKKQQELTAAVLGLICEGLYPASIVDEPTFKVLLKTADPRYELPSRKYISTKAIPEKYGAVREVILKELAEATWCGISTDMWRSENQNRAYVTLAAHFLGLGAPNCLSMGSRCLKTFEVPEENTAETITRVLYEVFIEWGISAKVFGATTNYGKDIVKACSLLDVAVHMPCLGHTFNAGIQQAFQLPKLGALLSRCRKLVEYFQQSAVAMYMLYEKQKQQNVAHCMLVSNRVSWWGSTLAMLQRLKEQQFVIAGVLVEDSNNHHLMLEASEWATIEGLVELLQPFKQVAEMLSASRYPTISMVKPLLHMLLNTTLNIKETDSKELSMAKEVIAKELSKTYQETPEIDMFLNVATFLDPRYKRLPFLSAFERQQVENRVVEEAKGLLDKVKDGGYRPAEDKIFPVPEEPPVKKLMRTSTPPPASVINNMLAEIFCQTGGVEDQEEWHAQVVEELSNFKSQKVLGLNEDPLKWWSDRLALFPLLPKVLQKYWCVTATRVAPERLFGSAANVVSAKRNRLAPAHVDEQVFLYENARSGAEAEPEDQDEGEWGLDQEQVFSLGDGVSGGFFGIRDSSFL

[1] = compound: C1=CC(=CC=C1C2=NC3=C(N2)C=C(C=C3)C(=O)N)OC4=CC=C(C=C4)Cl
Method in brief: as §1

[2] = compound: CC(C)C1=C2N=C(C=C(N2N=C1)NCC3=CC=CC=C3)NCCCCCCN
Method in brief: as §1

[3] = compound: C/C(=N\NC(=O)C1=CC(=CC=C1)S(=O)(=O)N2CCOCC2)/C3=C(C=CC(=C3)Cl)O
Method in brief: as §1

[4] = compound: C1=CC2=C(C=CC(=C2)/C=C\3/C(=O)NC(=NCC4=CC=CS4)S3)N=C1
Method in brief: as §1

[5] = compound: C1=CC=C(C=C1)C2=NC(=C(N2)C3=CC=NC=C3)C4=CC(=C(C=C4)Cl)O
Method in brief: as §1

[6] = compound: C1=CC=C2C(=C1)C3=NNC4=CC=CC(=C43)C2=O
Method in brief: as §1

[7] = compound: C1CCN(C1)C(=O)NC2=CC=CC(=C2)NC3=NC=C(C(=N3)NCCC4=CN=CN4)Br
Method in brief: as §1

[8] = compound: C1CN(CCC1(CC2=CC=C(C=C2)Cl)N)C3=NC=NC4=C3C=CN4
Method in brief: as §1

[9] = compound: CC(=O)c1cnc2ccc(-c3cc(Cl)c(O)c(Cl)c3)nc2c1N[C@H]1CC[C@H](CN(C)C)CC1
Method in brief: as §1

ralimetinib = compound: CC(C)(C)Cn1c(N)nc2ccc(-c3[nH]c(C(C)(C)C)nc3-c3ccc(F)cc3)nc21 [ralimetinib]
Method in brief: as §1

[10] = compound: CC(C)C[C@@H](C=O)NC(=O)[C@H](CC(C)C)NC(=O)[C@H](CC(C)C)NC(=O)OCc1ccccc1
Method in brief: as §1

[11] = compound: CC1=C(C2=C(C=C1)C(=O)C3=CC=CC=C3N2CCCN)C
Method in brief: as §1

[12] = compound: C1=CC2=NC=CN=C2C=C1/C=C/3\C(=O)NC(=O)S3
Method in brief: as §1

ibrutinib = compound: C=CC(=O)N1CCC[C@@H](n2nc(-c3ccc(Oc4ccccc4)cc3)c3c(N)ncnc32)C1 [ibrutinib]
Method in brief: as §1

[13] = compound: CC1=C(C(CC(=O)N1)C2=CC=C(C=C2)C(F)(F)F)C(=O)NC3=C(C=C4C(=C3)C=NN4)F
Method in brief: as §1

IRAK-1-4 Inhibitor I = compound: C1COCCN1CCN2C3=CC=CC=C3N=C2NC(=O)C4=CC(=CC=C4)[N+](=O)[O-] [IRAK-1-4 Inhibitor I]
Method in brief: as §1

pinometostat = compound: CC(C)N(C[C@H]1O[C@@H](n2cnc3c(N)ncnc32)[C@H](O)[C@@H]1O)[C@H]1C[C@@H](CCc2nc3cc(C(C)(C)C)ccc3[nH]2)C1 [pinometostat]
Method in brief: as §1

[14] = compound: C1=CC(=C(C=C1Cl)C2=NC3=NC=CN=C3C(=N2)NC4=CC=NC=C4)F
Method in brief: as §1

[15] = compound: CC(C)(O)CC(=O)NCCn1ccc2ncnc(Nc3ccc(Oc4cccc(C(F)(F)F)c4)c(Cl)c3)c21
Method in brief: as §1

Measured: log2 fold change

ZCRB1 (UniProt Q8TBF4)
inactive: erlotinib -0.059 | [1] 0.08 | [2] 0.138

ZKSCAN4 (UniProt Q969J2)
inactive: [3] -0.153 | [4] -0.076 | [5] -0.221 | [6] -0.056 | [7] -0.065 | [8] -0.014 | [9] -0.014 | ralimetinib 0.002 | [10] -0.191 | [11] -0.076

ZNF106 (UniProt Q9H2Y7)
inactive: [12] 0.058 | ibrutinib -0.013 | [13] -0.054

ZFPM2 (UniProt Q8WW38)
inactive: [3] -0.046 | [4] 0.091 | [6] 0.115 | [7] 0.078 | [8] 0.053 | [9] -0.028 | [11] 0.128

ZMYM2 (UniProt Q9UBW7)
inactive: [12] -0.078 | IRAK-1-4 Inhibitor I 0.155 | ibrutinib 0.061 | pinometostat -0.081

ZC3H7B (UniProt Q9UGR2)
inactive: [5] -0.81 | [7] -0.261 | [8] 0.124 | IRAK-1-4 Inhibitor I 0.061 | ralimetinib 0.267 | [10] 0.342 | pinometostat 0.268 | [11] -0.525

ZDHHC12 isoform 3 (UniProt Q96GR4)
inactive: [3] 0.057 | [4] -0.005 | [6] -0.012 | [7] -0.06 | [8] -0.244 | IRAK-1-4 Inhibitor I -0.075 | [9] -0.093 | pinometostat 0.134 | [11] 0.009

ZFYVE28 (UniProt Q9HCC9)
inactive: erlotinib 0.037 | [1] 0.008 | [12] -0.189 | IRAK-1-4 Inhibitor I -0.148 | ibrutinib 0.255 | [2] -0.066 | pinometostat 0.111

ZDHHC9 (UniProt Q9Y397)
inactive: [5] -0.085 | ralimetinib 0.058 | [10] 0.099

ZNF131 (UniProt P52739)
inactive: [14] -0.212 | [12] -0.149 | [5] 0.355 | IRAK-1-4 Inhibitor I -0.07 | ibrutinib 0.056 | ralimetinib -0.141 | [15] 0.112 | [10] 0.079 | pinometostat 0.127

ZDHHC16 (UniProt Q969W1)
inactive: erlotinib 0.061 | [1] -0.024 | [2] -0.033 | [13] 0.004

ZC3H11A (UniProt O75152)
inactive: [12] 0.095 | ibrutinib 0.048 | [13] -0.042

YWHAZ (UniProt E7ESK7)
inactive: [3] -0.037 | [14] 0.099 | [4] -0.13 | [12] -0.01 | [5] -0.068 | [6] 0.008 | [7] -0.031 | [8] 0.07 | IRAK-1-4 Inhibitor I 0.005 | ibrutinib -0.167 | [9] -0.081 | ralimetinib -0.031 | [15] 0.021 | [10] 0.019 | pinometostat -0.035 | [11] 0.029

ZDHHC8 isoform 3 (UniProt Q9ULC8)
inactive: [14] 0.028 | [12] -0.002 | [7] 0.06 | [8] 0.063 | IRAK-1-4 Inhibitor I -0.049 | ibrutinib 0.043 | pinometostat 0.026 | [11] 0.02
active: [15] 0.486

YBX1 (UniProt C9J5V9)
inactive: [3] 0.233 | [4] -0.002 | [6] -0.143 | IRAK-1-4 Inhibitor I 0.049 | [9] -0.085 | pinometostat -0.093

YBEY (UniProt P58557)
inactive: erlotinib 0.199 | [1] 0.11 | [5] 0.18 | ralimetinib 0.001 | [2] -0.042 | [10] 0.098

XP32 (UniProt Q5T750)
inactive: [3] 0.011 | [4] 0.147 | [12] -0.01 | [5] -0.274 | [6] -0.611 | ibrutinib 0.099 | [9] -0.433 | ralimetinib -0.049 | [10] -0.235 | [13] -0.749

YIPF1 (UniProt Q9Y548)
inactive: erlotinib 0.007 | [1] 0.018 | [12] 0 | [7] -0.024 | [8] -0.088 | ibrutinib 0.135 | [2] -0.027 | [13] -0.002 | [11] -0.044

ZFHX4 isoform 5 (UniProt Q86UP3)
inactive: erlotinib 0 | [1] 0.173 | [7] -0.016 | [8] -0.074 | IRAK-1-4 Inhibitor I -0.193 | [2] -0.1 | pinometostat -0.152 | [13] -0.096 | [11] 0.044

ZKSCAN8 (UniProt Q15776)
inactive: [14] -0.186 | [5] -0.004 | [7] 0.004 | [8] -0.066 | ralimetinib 0.091 | [15] -0.001 | [10] 0.191 | [11] -0.218

ZNF22 (UniProt P17026)
inactive: erlotinib -0.326 | [1] 0.094 | [5] -0.1 | [7] 0.044 | [8] 0.071 | IRAK-1-4 Inhibitor I -0.382 | ralimetinib 0.189 | [2] -0.012 | [10] 0.071 | pinometostat 0.305 | [11] -0.057

XYLT2 (UniProt Q9H1B5)
inactive: [14] -0.137 | IRAK-1-4 Inhibitor I -0.038 | [15] -0.046 | pinometostat 0.092

Retrieved one by one from the list above, 3 records:
XYLT2 (UniProt Q9H1B5)
inactive: [14] -0.137 | IRAK-1-4 Inhibitor I -0.038 | [15] -0.046 | pinometostat 0.092

XP32 (UniProt Q5T750)
inactive: [3] 0.011 | [4] 0.147 | [12] -0.01 | [5] -0.274 | [6] -0.611 | ibrutinib 0.099 | [9] -0.433 | ralimetinib -0.049 | [10] -0.235 | [13] -0.749

ZFHX4 isoform 5 (UniProt Q86UP3)
inactive: erlotinib 0 | [1] 0.173 | [7] -0.016 | [8] -0.074 | IRAK-1-4 Inhibitor I -0.193 | [2] -0.1 | pinometostat -0.152 | [13] -0.096 | [11] 0.044

Next part:

ZFP36L2 (UniProt P47974)
inactive: erlotinib 0.143 | [1] -0.176 | [2] 0.041

ZDHHC2 (UniProt Q9UIJ5)
inactive: [12] 0.033 | [5] 0.006 | IRAK-1-4 Inhibitor I -0.116 | ibrutinib -0.082 | ralimetinib -0.037 | [10] -0.06 | pinometostat 0.035 | [13] -0.054

ZG16B (UniProt Q96DA0)
inactive: [3] 0.349 | [4] 0.085 | [12] -0.076 | [6] 0.535 | ibrutinib 0.113 | [9] -0.644

XPA (UniProt P23025)
inactive: [3] 0.034 | [14] -0.014 | [4] 0.084 | [5] -0.12 | [6] -0.006 | [7] -0.174 | [8] -0.026 | [9] -0.156 | ralimetinib -0.118 | [15] -0.154 | [10] 0.154 | [13] -0.037 | [11] 0.019

XRN1 (UniProt Q8IZH2)
inactive: [14] -0.297 | [12] -0.17 | [5] -0.015 | [7] -0.168 | [8] -0.052 | IRAK-1-4 Inhibitor I -0.234 | ibrutinib 0.387 | ralimetinib 0.233 | [15] 0.2 | [10] 0.239 | pinometostat 0.233 | [13] -0.107 | [11] -0.056

ZBTB7B isoform 2 (UniProt O15156)
inactive: [7] -0.241 | [8] -0.505 | [11] -0.045

ZBTB14 (UniProt O43829)
inactive: erlotinib -0.031 | [1] 0.255 | [12] 0 | [5] -0.007 | [7] -0.016 | [8] -0.008 | ibrutinib 0.017 | ralimetinib 0.04 | [2] 0.1 | [10] -0.039 | [11] 0.411

ZBTB34 (UniProt Q8NCN2)
inactive: [3] -0.019 | [4] -0.078 | [6] -0.14 | [9] 0.284

ZBTB17 isoform 2 (UniProt Q13105)
inactive: erlotinib -0.048 | [1] 0.03 | [12] 0.171 | [7] -0.014 | [8] -0.199 | ibrutinib -0.05 | [2] 0.054
active: [11] 1.05

ZBED1 (UniProt O96006)
inactive: [3] 0.213 | [14] -0.015 | [4] 0.107 | [12] -0.007 | [6] -0.05 | [7] -0.003 | [8] -0.072 | ibrutinib 0.119 | [9] -0.047 | [15] -0.218 | [13] -0.301 | [11] -0.066

YIPF2 (UniProt Q9BWQ6)
inactive: [14] -0.264 | [12] -0.048 | [5] -0.138 | [7] 0.071 | [8] 0.433 | ibrutinib 0 | ralimetinib -0.105 | [15] 0.17 | [10] 0.071 | [13] 0.111 | [11] 0.168

ZFX isoform 3 (UniProt P17010)
inactive: [7] -0.086 | [8] -0.312 | [11] -0.06

ZNF225 (UniProt Q9UK10)
inactive: [3] -0.461 | [4] 0.011 | [12] -0.032 | [6] 0 | ibrutinib 0.121 | [9] 0.08

Source: the supplement of paper PMC10849652
